Results as given in paper doi:10.1101/2024.01.29.577192.
Like-named read-outs stand apart in the source and are kept apart here. No constants are given. Whether binding was seen depends on the method and setting. Binding seen in cells or lysates may run through a third protein. Here binding means that the protein was enriched with, or labelled near, the bait; the list need not be complete. For some assays here: A no says only that the protein was not detected with the bait.

Amino acid sequences for entries named in this document (tags omitted).
UniProt Q00839: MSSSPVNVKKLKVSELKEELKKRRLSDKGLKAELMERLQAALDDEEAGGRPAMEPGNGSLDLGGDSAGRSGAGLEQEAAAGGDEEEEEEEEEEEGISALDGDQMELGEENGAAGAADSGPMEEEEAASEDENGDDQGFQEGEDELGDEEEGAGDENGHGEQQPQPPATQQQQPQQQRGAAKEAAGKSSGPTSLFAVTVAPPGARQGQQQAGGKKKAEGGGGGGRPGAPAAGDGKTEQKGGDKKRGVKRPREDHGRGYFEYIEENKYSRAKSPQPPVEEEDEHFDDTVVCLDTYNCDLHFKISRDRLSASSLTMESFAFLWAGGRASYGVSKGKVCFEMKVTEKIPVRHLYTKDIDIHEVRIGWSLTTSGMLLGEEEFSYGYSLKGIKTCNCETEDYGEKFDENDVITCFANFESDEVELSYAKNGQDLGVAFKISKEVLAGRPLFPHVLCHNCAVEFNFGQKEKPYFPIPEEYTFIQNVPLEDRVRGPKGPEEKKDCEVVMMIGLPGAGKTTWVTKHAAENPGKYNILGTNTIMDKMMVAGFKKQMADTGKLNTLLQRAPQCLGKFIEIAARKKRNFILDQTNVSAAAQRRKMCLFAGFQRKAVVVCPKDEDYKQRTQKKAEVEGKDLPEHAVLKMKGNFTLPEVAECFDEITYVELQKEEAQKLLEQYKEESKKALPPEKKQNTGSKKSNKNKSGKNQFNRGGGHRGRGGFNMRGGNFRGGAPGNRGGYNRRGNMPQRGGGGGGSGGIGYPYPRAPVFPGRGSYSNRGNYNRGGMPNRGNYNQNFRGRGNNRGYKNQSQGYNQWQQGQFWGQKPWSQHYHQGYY
UniProt O00571: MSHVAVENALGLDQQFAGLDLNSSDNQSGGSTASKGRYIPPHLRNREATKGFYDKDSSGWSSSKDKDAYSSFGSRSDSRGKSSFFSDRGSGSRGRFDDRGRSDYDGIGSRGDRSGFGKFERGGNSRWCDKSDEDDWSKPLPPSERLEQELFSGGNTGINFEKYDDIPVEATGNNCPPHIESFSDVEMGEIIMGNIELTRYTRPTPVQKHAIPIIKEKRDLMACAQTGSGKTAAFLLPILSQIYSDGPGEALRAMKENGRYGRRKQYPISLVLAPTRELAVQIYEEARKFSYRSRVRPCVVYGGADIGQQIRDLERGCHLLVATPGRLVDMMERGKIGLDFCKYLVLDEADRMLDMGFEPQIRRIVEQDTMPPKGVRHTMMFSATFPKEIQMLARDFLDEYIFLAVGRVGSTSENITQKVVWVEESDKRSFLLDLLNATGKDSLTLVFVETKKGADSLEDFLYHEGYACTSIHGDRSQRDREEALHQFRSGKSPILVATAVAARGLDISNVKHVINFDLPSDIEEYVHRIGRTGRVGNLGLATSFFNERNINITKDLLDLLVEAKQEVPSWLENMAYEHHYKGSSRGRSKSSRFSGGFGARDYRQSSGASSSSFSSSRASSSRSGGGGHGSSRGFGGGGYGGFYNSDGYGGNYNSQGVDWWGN

Columns and labels:
[1] = molecular target: hnRNP U (human (endogenous in HCT116)) (UniProt Q00839); experiment: affinity purification with mass spectrometry
[2] = molecular target: hnRNP U (human (endogenous in HCT116)) (UniProt Q00839); experiment: affinity purification with mass spectrometry; remark: listed apart in the source

| binding [1] | binding [2] | Molecule |
| --- | --- | --- |
| binds |  | DDX3X (from UniProt O00571 1-662) |
|  | no binding | GRSF1 (protein, UniProt Q12849 118-480) SQESKTTYLEDLPPPPEYELAPSKLEEEVDDVFLIRAQGLPWSCTMEDVLNFFSDCRIRNGENGIHFLLNRDGKRRGDALIEMESEQDVQKALEKHRMYMGQRYVEVYEINNEDVDALMKSLQVKSSPVVNDGVVRLRGLPYSCNEKDIVDFFAGLNIVDITFVMDYRGRRKTGEAYVQFEEPEMANQALLKHREEIGNRYIEIFPSRRNEVRTHVGSYKGKKIASFPTAKYITEPEMVFEEHEVNEDIQPMTAFESEKEIELPKEVPEKLPEAADFGTTSSLHFVHMRGLPFQANAQDIINFFAPLKPVRITMEYSSSGKATGEADVHFETHEDAVAAMLKDRSHVHHRYIELFLNSCPKGK |
